# In publication PMC2654563:
# By UniProt entry, the sequences of proteins in these tests, tags left out. Where a name states a change or a piece, a line headed by the entry shows the natural chain unless it says otherwise.
# UniProt P0ACJ8: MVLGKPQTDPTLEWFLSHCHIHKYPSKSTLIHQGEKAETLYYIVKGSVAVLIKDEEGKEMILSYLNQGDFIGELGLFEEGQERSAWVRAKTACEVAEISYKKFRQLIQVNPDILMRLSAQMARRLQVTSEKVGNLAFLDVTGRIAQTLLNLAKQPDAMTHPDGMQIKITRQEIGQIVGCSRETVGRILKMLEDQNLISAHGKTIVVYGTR
# For at least one entry, the source does not settle the construct or the ends of the probe. At least one verdict was read from the data and is not stated in words by the source.
# Molecular target: CAP (catabolite activator protein, CRP) (Escherichia coli) (UniProt P0ACJ8)
# Assay: EMSA
# Conditions: 0.2 mM cAMP, 4 mM MgCl2, EMSA: 20 mM Tris-HCl pH 8.0, 40 mM NaCl, 4 mM MgCl2, 0.1 mM EDTA, 1 mM DTT, 10 ug/ml salmon sperm DNA, 6% glycerol, CAP 0-1000 nM, temperature not stated, recombinant protein, protein details: His6, label: 5'-32P top strand
sequence,measurement,value
CCTAATGAGTGAGCTAACTCACATTAATTG (double strand) [Lac site],binding result,binds
